# In the supplement of paper PMC4604168 (melanoma cell lines):
# Some of the results follow. Many values rest on one well or one pass, so single values are uncertain.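 Imaging used 1,536-well plates; nuclei positive for cleaved PARP by antibody were divided by total DNA-stained nuclei to yield the apoptosis fraction. Doses for screening kept most cells viable, and cell lines differ markedly in resting and induced cleaved-PARP levels.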
# System: A375
# Assay: cleaved PARP positive nuclei fraction relative to DMSO control; melanoma cells; higher = more apoptosis
# Conditions: library dose: low library concentration; 72 h
row,SMILES,cleaved PARP positive nuclei fraction
1,"O=C(/C=C/c1cccnc1)NCCCCC1CCN(C(=O)c2ccccc2)CC1 + CC1(C)NC(=O)N(c2ccc([N+](=O)[O-])c(C(F)(F)F)c2)C1=O [nilutamide] (first compound 0.01 µM, partner dose 1 µM)",106%
2,"Cc1ccc(Nc2nccc(N(C)c3ccc4c(C)n(C)nc4c3)n2)cc1S(N)(=O)=O [Pazopanib] + C[C@@H]1CCN(C(=O)CC#N)C[C@@H]1N(C)c1ncnc2[nH]ccc12 [CP690550] (first compound 0.4 µM, partner dose 1 µM)",53.8%
3,"O=C(Nc1cc(C(F)(F)F)cc(C(F)(F)F)c1)c1cc(Cl)ccc1O + Cc1cc(N2CCOCC2)cc2[nH]c(-c3c(NC[C@@H](O)c4cccc(Cl)c4)cc[nH]c3=O)nc12 [BMS536924] (first compound 0.016 µM, partner dose 0.2 µM)",139%
4,"Cc1cn(-c2cc(NC(=O)c3ccc(C)c(Nc4nccc(-c5cccnc5)n4)c3)cc(C(F)(F)F)c2)cn1 [nilotinib] + CO[C@@H]1[C@H](N(C)C(=O)c2ccccc2)C[C@H]2O[C@]1(C)n1c3ccccc3c3c4c(c5c6ccccc6n2c5c31)C(=O)NC4 [Midostaurin] (first compound 0.2 µM, partner dose 0.08 µM)",138%
5,"O=C(Nc1cc(C(F)(F)F)cc(C(F)(F)F)c1)c1cc(Cl)ccc1O + NC(=O)Nc1cc(-c2cccc(F)c2)sc1C(=O)N[C@H]1CCCNC1 [AZD7762] (first compound 0.016 µM, partner dose 0.02 µM)",321%
6,"Cc1ccc(Nc2nccc(N(C)c3ccc4c(C)n(C)nc4c3)n2)cc1S(N)(=O)=O [Pazopanib] + COc1cc2c(Oc3ccc4[nH]c(C)cc4c3F)ncnc2cc1OCCCN1CCCC1 [cediranib] (first compound 0.4 µM, partner dose 0.4 µM)",63.2%
7,"Cc1cn(-c2cc(NC(=O)c3ccc(C)c(Nc4nccc(-c5cccnc5)n4)c3)cc(C(F)(F)F)c2)cn1 [nilotinib] + Cc1cc(N2CCOCC2)cc2[nH]c(-c3c(NC[C@@H](O)c4cccc(Cl)c4)cc[nH]c3=O)nc12 [BMS536924] (first compound 0.2 µM, partner dose 0.2 µM)",149%
8,"O=c1[nH]nc(Sc2ncc([N+](=O)[O-])s2)n1-c1ccc2c(c1)OCCO2 + O=C(Nc1cccc(Cl)c1)Nc1ncc(CCNc2ncnc3ccsc23)s1 [SNS314] (first compound 0.2 µM, partner dose 0.0008 µM)",120%
9,"Cc1ccc(Nc2nccc(N(C)c3ccc4c(C)n(C)nc4c3)n2)cc1S(N)(=O)=O [Pazopanib] + Cc1cc(N2CCOCC2)cc2[nH]c(-c3c(NC[C@@H](O)c4cccc(Cl)c4)cc[nH]c3=O)nc12 [BMS536924] (first compound 0.4 µM, partner dose 0.2 µM)",183%
10,"COc1cc([C@@H]2c3cc4c(cc3[C@@H](O[C@@H]3O[C@@H]5CO[C@@H](C)O[C@H]5[C@H](O)[C@H]3O)[C@H]3COC(=O)[C@H]23)OCO4)cc(OC)c1O [etoposide] + C[C@@H]1CCN(C(=O)CC#N)C[C@@H]1N(C)c1ncnc2[nH]ccc12 [CP690550] (first compound 0.02 µM, partner dose 1 µM)",25.5%
11,"Cc1cc(Nc2cc(N3CCN(C)CC3)nc(Sc3ccc(NC(=O)C4CC4)cc3)n2)n[nH]1 [Tozasertib] + CN(C)S(=O)(=O)c1ccc2c(c1)/C(=C/c1cc3c([nH]1)CCCC3)C(=O)N2 [SU6656] (first compound 0.006 µM, partner dose 0.4 µM)",236%
12,"O=C(/C=C/c1cccnc1)NCCCCC1CCN(C(=O)c2ccccc2)CC1 + CN(NC(=O)CC(=O)NN(C)C(=S)c1ccccc1)C(=S)c1ccccc1 [STA4783] (first compound 0.01 µM, partner dose 0.006 µM)",10600%
13,"O=C(Nc1cc(C(F)(F)F)cc(C(F)(F)F)c1)c1cc(Cl)ccc1O + CN(NC(=O)CC(=O)NN(C)C(=S)c1ccccc1)C(=S)c1ccccc1 [STA4783] (first compound 0.016 µM, partner dose 0.006 µM)",2960%
14,"COc1cc([C@@H]2c3cc4c(cc3[C@@H](O[C@@H]3O[C@@H]5CO[C@@H](C)O[C@H]5[C@H](O)[C@H]3O)[C@H]3COC(=O)[C@H]23)OCO4)cc(OC)c1O [etoposide] + NC(=O)Nc1cc(-c2cccc(F)c2)sc1C(=O)N[C@H]1CCCNC1 [AZD7762] (first compound 0.02 µM, partner dose 0.02 µM)",710%

# From no. 7 as far as 10, as listed above:
row,SMILES,cleaved PARP positive nuclei fraction
7,"Cc1cn(-c2cc(NC(=O)c3ccc(C)c(Nc4nccc(-c5cccnc5)n4)c3)cc(C(F)(F)F)c2)cn1 [nilotinib] + Cc1cc(N2CCOCC2)cc2[nH]c(-c3c(NC[C@@H](O)c4cccc(Cl)c4)cc[nH]c3=O)nc12 [BMS536924] (first compound 0.2 µM, partner dose 0.2 µM)",149%
8,"O=c1[nH]nc(Sc2ncc([N+](=O)[O-])s2)n1-c1ccc2c(c1)OCCO2 + O=C(Nc1cccc(Cl)c1)Nc1ncc(CCNc2ncnc3ccsc23)s1 [SNS314] (first compound 0.2 µM, partner dose 0.0008 µM)",120%
9,"Cc1ccc(Nc2nccc(N(C)c3ccc4c(C)n(C)nc4c3)n2)cc1S(N)(=O)=O [Pazopanib] + Cc1cc(N2CCOCC2)cc2[nH]c(-c3c(NC[C@@H](O)c4cccc(Cl)c4)cc[nH]c3=O)nc12 [BMS536924] (first compound 0.4 µM, partner dose 0.2 µM)",183%
10,"COc1cc([C@@H]2c3cc4c(cc3[C@@H](O[C@@H]3O[C@@H]5CO[C@@H](C)O[C@H]5[C@H](O)[C@H]3O)[C@H]3COC(=O)[C@H]23)OCO4)cc(OC)c1O [etoposide] + C[C@@H]1CCN(C(=O)CC#N)C[C@@H]1N(C)c1ncnc2[nH]ccc12 [CP690550] (first compound 0.02 µM, partner dose 1 µM)",25.5%
